Source: article PMC10876960
No constants are given. Whether binding was seen depends on the method and setting. Binding seen in cells or lysates may run through a third protein. Some entries that bind do so weakly or less than the wild type. Sequences can lack the tags named with a protein.

Chains of the proteins cited; added tags and fusions are not shown.
UniProt P37238: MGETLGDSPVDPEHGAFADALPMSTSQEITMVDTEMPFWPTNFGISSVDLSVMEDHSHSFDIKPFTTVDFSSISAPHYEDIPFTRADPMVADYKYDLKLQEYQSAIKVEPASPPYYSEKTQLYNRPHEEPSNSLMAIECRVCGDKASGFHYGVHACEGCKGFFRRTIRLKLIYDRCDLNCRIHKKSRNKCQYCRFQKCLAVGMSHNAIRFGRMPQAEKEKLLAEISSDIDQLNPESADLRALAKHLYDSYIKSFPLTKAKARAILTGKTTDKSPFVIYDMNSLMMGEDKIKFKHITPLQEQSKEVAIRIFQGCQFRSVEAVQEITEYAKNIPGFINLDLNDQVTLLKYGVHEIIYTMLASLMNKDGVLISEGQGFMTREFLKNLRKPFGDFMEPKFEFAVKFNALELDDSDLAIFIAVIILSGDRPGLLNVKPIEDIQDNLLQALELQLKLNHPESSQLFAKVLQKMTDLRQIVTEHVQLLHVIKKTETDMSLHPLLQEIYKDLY

Molecular target: T1, FSCN2-Flag (Fscn2-3xFLAG, overexpressed in HEI-OC1 cells) (UniProt Q32M02)
T1 sequence: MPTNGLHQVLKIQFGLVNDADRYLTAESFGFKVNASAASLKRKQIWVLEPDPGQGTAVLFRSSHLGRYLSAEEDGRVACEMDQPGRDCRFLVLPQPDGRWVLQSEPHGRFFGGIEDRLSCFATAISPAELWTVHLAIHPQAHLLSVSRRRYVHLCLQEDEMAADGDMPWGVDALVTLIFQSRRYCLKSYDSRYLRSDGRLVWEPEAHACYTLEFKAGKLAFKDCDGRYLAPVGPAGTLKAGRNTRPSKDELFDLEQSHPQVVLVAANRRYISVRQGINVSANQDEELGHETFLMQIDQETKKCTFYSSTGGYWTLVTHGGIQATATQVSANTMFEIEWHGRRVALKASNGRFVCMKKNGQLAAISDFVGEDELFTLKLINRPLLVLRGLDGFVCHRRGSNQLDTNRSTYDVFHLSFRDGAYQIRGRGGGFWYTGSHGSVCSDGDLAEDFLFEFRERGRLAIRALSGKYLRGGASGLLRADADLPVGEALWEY
Test: co-IP; lysate (RIPA buffer with PMSF) of HEI-OC1 cells overexpressing Fscn2-3xFLAG incubated overnight with Anti-DYKDDDDK (Flag) Affinity Gel; acid elution; Western blotting

Q: How did the binding turn out when PPAR-γ (from UniProt P37238 1-505) was run?
A: The binding was “binds”.
